Results: PMC8890623
Results are given in words; binding and its absence hold for the method and conditions named. In cells and extracts the contact can be indirect. Some binding calls cover weakened binding; strength is not graded here. Sequences can lack the tags named with a protein.

Tests used:
Experiment in all cases: co-IP; vtc4Δ yeast whole cell lysates; 3XFLAG-tagged Top1 captured on anti-Flag M2 agarose beads, 1 hr at 4°C; 50 mM Tris pH 8, 150 mM NaCl, 7 mM EDTA, 5 mM DTT; washes with 0.75% Triton X-100; eluted with 3X-FLAG peptide; blots probed with αFLAG or αHA
[1] = molecular target: T1, yeast Topoisomerase 1 Y740Stop truncation mutant, C-terminally 3XFLAG-tagged (S. cerevisiae) (UniProt P04786)
T1 sequence: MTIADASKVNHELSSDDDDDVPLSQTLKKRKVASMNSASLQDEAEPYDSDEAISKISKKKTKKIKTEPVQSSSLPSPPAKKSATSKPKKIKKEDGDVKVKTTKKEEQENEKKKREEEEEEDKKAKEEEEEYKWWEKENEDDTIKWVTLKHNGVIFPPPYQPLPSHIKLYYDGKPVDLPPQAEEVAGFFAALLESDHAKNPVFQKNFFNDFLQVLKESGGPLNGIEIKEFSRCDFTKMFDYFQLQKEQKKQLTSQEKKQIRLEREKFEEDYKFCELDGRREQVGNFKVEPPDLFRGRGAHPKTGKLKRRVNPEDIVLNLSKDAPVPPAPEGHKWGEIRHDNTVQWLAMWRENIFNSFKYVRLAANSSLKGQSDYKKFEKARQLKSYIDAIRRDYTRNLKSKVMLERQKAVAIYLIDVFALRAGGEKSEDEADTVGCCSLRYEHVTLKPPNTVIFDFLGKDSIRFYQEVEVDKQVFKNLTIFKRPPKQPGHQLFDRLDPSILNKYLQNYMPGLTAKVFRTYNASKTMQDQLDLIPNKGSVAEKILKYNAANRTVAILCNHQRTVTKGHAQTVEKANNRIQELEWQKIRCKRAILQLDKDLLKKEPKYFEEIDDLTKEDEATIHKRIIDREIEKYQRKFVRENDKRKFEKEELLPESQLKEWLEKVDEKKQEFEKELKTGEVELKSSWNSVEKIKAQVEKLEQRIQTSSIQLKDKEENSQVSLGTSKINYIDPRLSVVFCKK

[2] = molecular target: T2, yeast Topoisomerase 1 S733E duplex DNA binding mutant, C-terminally 3XFLAG-tagged (S. cerevisiae) (UniProt P04786)
T2 sequence: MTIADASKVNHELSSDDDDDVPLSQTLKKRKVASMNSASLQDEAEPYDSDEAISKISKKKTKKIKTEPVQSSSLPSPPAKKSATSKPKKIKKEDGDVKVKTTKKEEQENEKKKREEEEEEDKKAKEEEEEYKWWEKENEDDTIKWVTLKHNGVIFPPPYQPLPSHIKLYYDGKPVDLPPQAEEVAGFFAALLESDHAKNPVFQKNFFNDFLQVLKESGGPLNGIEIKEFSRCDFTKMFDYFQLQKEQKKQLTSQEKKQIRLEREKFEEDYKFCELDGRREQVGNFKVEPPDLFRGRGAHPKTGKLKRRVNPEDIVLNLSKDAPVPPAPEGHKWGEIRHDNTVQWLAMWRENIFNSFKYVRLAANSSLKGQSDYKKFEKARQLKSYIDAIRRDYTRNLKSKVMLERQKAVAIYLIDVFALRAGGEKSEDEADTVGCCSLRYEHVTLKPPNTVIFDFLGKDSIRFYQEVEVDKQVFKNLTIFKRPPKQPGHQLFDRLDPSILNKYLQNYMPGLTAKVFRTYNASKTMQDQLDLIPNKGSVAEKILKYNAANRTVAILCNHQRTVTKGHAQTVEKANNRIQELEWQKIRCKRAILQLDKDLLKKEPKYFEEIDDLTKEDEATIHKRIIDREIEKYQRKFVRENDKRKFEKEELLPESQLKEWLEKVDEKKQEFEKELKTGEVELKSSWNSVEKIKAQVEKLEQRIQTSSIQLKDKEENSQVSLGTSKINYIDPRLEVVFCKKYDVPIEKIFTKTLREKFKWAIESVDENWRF

[3] = molecular target: T3, yeast Topoisomerase 1 Y727F catalytic mutant, C-terminally 3XFLAG-tagged (S. cerevisiae) (UniProt P04786)
T3 sequence: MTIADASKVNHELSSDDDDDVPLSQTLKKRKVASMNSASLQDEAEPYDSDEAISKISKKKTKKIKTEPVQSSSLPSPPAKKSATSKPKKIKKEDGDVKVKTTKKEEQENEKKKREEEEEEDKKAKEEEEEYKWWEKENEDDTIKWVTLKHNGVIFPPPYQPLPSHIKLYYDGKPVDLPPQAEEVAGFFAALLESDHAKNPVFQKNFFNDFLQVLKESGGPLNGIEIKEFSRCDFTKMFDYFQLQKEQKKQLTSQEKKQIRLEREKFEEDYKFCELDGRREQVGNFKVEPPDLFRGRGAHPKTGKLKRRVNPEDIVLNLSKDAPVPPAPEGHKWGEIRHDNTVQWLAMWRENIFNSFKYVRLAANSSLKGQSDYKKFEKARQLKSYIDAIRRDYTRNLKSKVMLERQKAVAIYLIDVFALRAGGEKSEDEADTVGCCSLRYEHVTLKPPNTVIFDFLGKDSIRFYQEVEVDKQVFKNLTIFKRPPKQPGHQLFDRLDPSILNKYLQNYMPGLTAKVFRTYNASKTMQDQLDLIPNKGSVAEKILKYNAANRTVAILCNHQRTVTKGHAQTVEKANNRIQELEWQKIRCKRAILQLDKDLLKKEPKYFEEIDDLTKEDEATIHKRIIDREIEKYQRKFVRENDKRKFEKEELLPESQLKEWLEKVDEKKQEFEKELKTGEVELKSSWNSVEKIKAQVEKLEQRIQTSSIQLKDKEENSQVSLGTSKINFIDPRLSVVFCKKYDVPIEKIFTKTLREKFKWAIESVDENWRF

Measured: binding

B1: Nsr1ΔRGG (Nsr1 amino acid residues 1-350), C-terminally 6XHA-tagged (domain or fragment, UniProt P27476 1-350)
chain: MAKTTKVKGNKKEVKASKQAKEEKAKAVSSSSSESSSSSSSSSESESESESESESSSSSSSSDSESSSSSSSDSESEAETKKEESKDSSSSSSDSSSDEEEEEEKEETKKEESKESSSSDSSSSSSSDSESEKEESNDKKRKSEDAEEEEDEESSNKKQKNEETEEPATIFVGRLSWSIDDEWLKKEFEHIGGVIGARVIYERGTDRSRGYGYVDFENKSYAEKAIQEMQGKEIDGRPINCDMSTSKPAGNNDRAKKFGDTPSEPSDTLFLGNLSFNADRDAIFELFAKHGEVVSVRIPTHPETEQPKGFGYVQFSNMEDAKKALDALQGEYIDNRPVRLDFSSPRPNND
binds: all assays above
